This series in a line: Relative CO2 absorption rates in a twin stirred cell (Example 6). The series is classed as physicochemical. Conditions: aqueous solution with 5 wt.-% piperazine and 30 wt.-% amine; 50° C.

Consider `CC(C)(C)NCC(O)CO` (centres unmarked) [TBAPD, 3-(tert-butylamino)propane-1,2-diol], for which the “absorption rate, comparison in words” value was “significantly higher than that of the solutions comprising MDEA and DMAPD”; the “maximum loading, comparison in words” value was “higher than that of the solutions comprising MDEA and DMAPD”.

Source of the values: US11173446B2, “Process for removal of acid gases from a fluid stream” (BASF SE, priority 2017, dated 2021).
